In PubChem BioAssay AID624297 (National Center for Advancing Translational Sciences (NCATS), 2012):
Among all 340,000 compounds or so, about 6,200 (1.8%) were called active. Inconclusive means that the source gave no clear call. Such entries were picked first, then a sample of the others. Calls come from the whole dose curve; as a rule, active = well fitted activation curve with a large enough effect; inconclusive = small, poorly fitted or top-dose-only effect; inactive = no such curve, though single readings can be large or run the other way. Potencies of inconclusive entries are doubtful fits and often do not repeat.
Potency is the fitted concentration of half-maximal effect.

Assay: A quantitative high throughput screen for small molecules that induce DNA re-replication in SW480 colon adenocarcinoma cells. For re-replication activation: % of control where 0% means no effect. Note: nearly all actives have a fitted effect of over 55% in size.
Details: Hoechst DNA content imaging, 48 h; re-replication activation: at 46.1 µM (top of the series) unless noted
Method in brief: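 Per well, 250 cells were exposed to pinned compound for 48 hr. Nuclear DNA was visualised with Hoechst (40 min, 37 C) and total object intensity recorded by fluorescence scanning.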
With `COc1ccc(CC(O)CC2c3c(cc4c(c3OC)OCO4)CCN2C)cc1` (stereo unspecified) the “re-replication activation” value was inactive: 27.2%. With `CC(C)(C)CC(=O)NC(=S)NCCc1ccccc1` the Potency was active: 10.3 µM. For `CCOC(=O)c1cnc(SCc2nc(N)nc(Nc3ccc(F)cc3)n2)nc1N`, the Potency was inconclusive: 29.1 µM [activator, single point]. In the case of `CC(=O)c1ccc(OC(C)C)c(CN2CCCCC2)c1`, the Potency was inconclusive: 10.3 µM [activator, single point]. For `Cc1sc2ncnc(SCC(=O)NNC(=O)COc3cccc4ccccc34)c2c1C`, the Potency was inconclusive: 29.1 µM [activator, single point]. In the case of `O=C(NCCCNC(=O)c1c(Cl)cccc1Cl)c1c(Cl)cccc1Cl`, the “re-replication activation” value was inactive: -3.64%. For `COc1ccc(NC(=O)CNC(c2ccccc2)c2ccccc2)cc1`, the “re-replication activation” value was inactive: -5.48%. For `Cc1cccc(C)c1NC(=O)CN(C)CC(=O)Nc1ccc(F)c(Cl)c1`, the “re-replication activation” value was inactive: -1.6%. For `O=C(O)c1ccccc1C(=O)NNc1cccc(Cl)n1`, the “re-replication activation” value was inactive: -16.4%. In the case of `Cc1ccc(-c2nc(C=Nc3cccc(C)c3)c(O)o2)cc1`, the Potency was inconclusive: 25.9 µM [activator, single point]. With `Cc1nnc(SCC(=O)NCC2CCCO2)n1Cc1ccccc1` (stereo unspecified) the “re-replication activation” value was inactive: 3.6%. In the case of `COc1cccc(-c2sc3ccccc3c2-c2ccc(OCCN3CCCCC3)cc2)c1`, the Potency was inconclusive: 29.1 µM [activator, single point]. With `CCOc1ccc(-n2cnnn2)cc1S(=O)(=O)N1CCCCC1` the Potency was inconclusive: 0.0052 µM [activator, full curve, poor fit]. For `COc1ccc(N2CCN(C(=O)CCc3c[nH]c4ccccc34)CC2)cc1`, the “re-replication activation” value was inactive: 8.69%. For `FC(F)(F)c1ccccc1NC(=S)N1CCCC1`, the Potency was inconclusive: 5.17 µM [activator, partial curve, poor fit]. For `Fc1ccc(NC(=S)NCCN2CCOCC2)cc1`, the “re-replication activation” value was inactive: -109%. In the case of `COc1ccc(-n2cnc3cc(NCc4ccco4)ccc32)cc1`, the Potency was inconclusive: 29.1 µM [activator, single point]. With `CN1CCN(S(=O)(=O)c2ccc3ccccc3c2)CC1` the Potency was inconclusive: 32.6 µM [activator, partial curve, poor fit]. In the case of `CCOC(=O)c1c(N2C(=O)C3C4C=CC(O4)C3C2=O)sc2c1CCCC2` (stereo unspecified), the Potency was inconclusive: 23.1 µM [activator, single point]. With `Cc1ccc(OCC2Cn3c(nc4c3c(=O)[nH]c(=O)n4C)O2)cc1C` (stereo unspecified) the Potency was inconclusive: 29.1 µM [activator, single point]. In the case of `CCC1OC(c2ccc([N+](=O)[O-])cc2)=Nc2ccccc21` (stereo unspecified), the Potency was inconclusive: 1.84 µM [activator, partial curve, poor fit].
